Data taken from paper PMC3639846.
No constants are given. Whether binding was seen depends on the method and setting. Binding seen in cells or lysates may run through a third protein. Some results given as binding are weak or reduced against the parent protein; the word gives no strength.

Protein sequences, listed by entry. Tags and fused reporters are not part of them. Lines headed by an entry give the natural chain unless they say otherwise; changes in a name come on top. Chains listed by the source or under a name are the forms on record and can include a tag or linker.
UniProt Q9BVC4: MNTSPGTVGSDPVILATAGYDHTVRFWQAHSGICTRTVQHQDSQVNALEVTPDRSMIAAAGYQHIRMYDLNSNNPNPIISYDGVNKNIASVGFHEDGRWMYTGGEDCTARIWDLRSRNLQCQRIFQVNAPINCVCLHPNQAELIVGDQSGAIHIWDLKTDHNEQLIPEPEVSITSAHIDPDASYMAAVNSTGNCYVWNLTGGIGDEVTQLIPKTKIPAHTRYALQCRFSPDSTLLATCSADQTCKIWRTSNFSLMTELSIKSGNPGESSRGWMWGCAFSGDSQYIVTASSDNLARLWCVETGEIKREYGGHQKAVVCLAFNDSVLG
FLAG-tagged mLST8 mutant replacing Ala182 by Asp (Q9BVC4, form named): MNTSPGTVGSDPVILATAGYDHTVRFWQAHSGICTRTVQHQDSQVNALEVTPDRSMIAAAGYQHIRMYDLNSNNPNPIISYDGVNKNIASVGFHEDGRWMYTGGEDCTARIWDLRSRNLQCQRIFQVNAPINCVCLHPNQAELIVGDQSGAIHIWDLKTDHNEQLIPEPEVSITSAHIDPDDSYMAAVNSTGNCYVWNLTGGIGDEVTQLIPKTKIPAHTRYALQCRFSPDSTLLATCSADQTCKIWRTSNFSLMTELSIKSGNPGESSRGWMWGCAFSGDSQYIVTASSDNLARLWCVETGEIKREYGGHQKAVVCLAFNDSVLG
FLAG-tagged mLST8 mutant replacing Gly150 by Asp (Q9BVC4, form named): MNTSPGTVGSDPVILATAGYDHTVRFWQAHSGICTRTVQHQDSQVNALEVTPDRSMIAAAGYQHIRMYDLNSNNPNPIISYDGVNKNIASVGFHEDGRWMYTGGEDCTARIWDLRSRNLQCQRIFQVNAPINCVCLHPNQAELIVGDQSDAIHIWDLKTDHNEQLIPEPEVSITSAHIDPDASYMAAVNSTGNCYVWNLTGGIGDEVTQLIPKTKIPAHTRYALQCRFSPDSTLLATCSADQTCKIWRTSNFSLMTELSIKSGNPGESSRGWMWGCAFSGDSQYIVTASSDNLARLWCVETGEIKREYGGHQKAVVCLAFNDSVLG
FLAG-tagged mLST8 mutant replacing Phe320 by Ser (Q9BVC4, form named): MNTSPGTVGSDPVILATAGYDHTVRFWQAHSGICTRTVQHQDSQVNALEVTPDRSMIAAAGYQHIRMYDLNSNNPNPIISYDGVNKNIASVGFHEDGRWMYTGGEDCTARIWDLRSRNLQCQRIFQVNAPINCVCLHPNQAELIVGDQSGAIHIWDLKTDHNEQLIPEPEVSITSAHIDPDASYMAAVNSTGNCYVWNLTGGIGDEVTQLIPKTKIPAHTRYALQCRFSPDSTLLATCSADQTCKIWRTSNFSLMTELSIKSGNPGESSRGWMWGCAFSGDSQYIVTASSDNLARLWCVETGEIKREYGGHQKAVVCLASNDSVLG
FLAG-tagged mLST8 mutant replacing Gly192 by Asp (Q9BVC4, form named): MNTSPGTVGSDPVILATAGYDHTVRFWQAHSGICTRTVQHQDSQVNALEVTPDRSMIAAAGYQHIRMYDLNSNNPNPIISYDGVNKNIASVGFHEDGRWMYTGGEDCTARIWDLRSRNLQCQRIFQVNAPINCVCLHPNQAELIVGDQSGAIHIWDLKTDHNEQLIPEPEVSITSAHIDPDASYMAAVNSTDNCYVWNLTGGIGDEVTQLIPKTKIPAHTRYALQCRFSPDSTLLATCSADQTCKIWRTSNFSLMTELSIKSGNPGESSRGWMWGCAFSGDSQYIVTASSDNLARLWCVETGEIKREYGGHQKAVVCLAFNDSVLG
UniProt P27708: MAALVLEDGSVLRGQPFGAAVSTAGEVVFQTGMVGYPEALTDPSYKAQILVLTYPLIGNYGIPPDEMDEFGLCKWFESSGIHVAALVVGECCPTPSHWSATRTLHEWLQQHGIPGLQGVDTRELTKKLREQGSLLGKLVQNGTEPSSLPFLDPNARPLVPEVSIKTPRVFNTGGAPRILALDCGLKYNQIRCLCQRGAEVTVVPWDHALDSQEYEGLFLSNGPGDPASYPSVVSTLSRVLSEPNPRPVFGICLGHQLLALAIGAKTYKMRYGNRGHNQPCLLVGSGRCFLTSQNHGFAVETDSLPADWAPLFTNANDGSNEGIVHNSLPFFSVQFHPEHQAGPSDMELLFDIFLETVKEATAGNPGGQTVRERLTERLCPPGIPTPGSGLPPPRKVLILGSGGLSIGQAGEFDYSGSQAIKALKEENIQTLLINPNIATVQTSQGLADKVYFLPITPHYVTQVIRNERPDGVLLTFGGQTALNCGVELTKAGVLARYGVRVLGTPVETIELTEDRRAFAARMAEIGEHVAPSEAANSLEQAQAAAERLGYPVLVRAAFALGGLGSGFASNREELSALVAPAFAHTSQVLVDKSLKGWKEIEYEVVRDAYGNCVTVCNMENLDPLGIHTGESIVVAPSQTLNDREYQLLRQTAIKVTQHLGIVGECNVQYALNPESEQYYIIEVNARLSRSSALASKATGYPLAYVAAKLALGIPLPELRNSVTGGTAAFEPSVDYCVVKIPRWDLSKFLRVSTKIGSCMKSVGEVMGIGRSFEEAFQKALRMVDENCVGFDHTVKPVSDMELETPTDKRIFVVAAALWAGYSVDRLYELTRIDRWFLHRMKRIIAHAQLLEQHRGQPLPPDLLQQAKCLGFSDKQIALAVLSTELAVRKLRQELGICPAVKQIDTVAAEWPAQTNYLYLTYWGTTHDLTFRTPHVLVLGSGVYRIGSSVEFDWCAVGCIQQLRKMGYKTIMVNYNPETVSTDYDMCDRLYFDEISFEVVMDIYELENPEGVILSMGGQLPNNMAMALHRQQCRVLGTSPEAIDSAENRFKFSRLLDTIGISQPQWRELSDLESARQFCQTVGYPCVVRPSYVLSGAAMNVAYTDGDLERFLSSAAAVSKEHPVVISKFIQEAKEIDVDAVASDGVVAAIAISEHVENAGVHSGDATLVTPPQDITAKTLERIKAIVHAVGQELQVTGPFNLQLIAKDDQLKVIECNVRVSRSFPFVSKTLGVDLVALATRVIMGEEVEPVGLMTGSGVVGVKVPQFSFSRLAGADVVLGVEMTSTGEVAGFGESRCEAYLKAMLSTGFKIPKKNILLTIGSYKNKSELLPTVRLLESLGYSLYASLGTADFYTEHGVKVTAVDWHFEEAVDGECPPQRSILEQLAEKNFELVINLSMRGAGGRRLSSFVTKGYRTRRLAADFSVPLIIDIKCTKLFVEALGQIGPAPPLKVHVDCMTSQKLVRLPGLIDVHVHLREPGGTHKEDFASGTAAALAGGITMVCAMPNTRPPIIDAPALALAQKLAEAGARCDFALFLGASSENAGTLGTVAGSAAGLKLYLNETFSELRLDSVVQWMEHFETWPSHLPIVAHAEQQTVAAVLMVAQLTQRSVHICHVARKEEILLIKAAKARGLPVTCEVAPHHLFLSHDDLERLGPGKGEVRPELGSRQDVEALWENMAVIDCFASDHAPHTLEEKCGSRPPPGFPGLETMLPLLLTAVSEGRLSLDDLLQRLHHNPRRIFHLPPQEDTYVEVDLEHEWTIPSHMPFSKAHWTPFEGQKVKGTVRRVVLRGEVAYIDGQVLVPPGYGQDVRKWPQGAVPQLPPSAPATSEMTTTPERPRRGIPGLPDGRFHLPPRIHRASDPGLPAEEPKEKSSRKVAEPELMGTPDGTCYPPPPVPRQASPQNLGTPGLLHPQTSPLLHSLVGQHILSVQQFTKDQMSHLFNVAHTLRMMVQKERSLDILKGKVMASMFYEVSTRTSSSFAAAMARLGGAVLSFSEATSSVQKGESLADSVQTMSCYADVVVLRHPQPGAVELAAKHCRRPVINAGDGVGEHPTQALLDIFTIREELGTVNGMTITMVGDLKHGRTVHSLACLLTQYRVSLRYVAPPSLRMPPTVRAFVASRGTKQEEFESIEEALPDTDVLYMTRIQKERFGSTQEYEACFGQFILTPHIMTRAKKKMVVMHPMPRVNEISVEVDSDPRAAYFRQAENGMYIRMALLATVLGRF

Tests used:
Experiment in all cases: co-IP; HEK293 cell extracts in Buffer A (20 mM Tris-HCl pH 7.5, 120 mM NaCl, 1 mM EDTA, 5 mM EGTA, 20 mM β-glycerophosphate, 0.3% CHAPS, 1 mM dithiothreitol), 0-4°C, 2 h with Protein G-Sepharose coupled with each antibody, washed three times with Buffer A; immunoblot
[1] = molecular target: endogenous mLST8 of HEK293 cells (human (endogenous in HEK293)) (UniProt Q9BVC4)
[2] = molecular target: FLAG-tagged wild type mLST8 (UniProt Q9BVC4)
[3] = molecular target: FLAG-tagged mLST8 mutant replacing Ala182 by Asp (UniProt Q9BVC4)
[4] = molecular target: FLAG-tagged mLST8 mutant replacing Gly150 by Asp (UniProt Q9BVC4)
[5] = molecular target: FLAG-tagged mLST8 mutant replacing Phe320 by Ser (UniProt Q9BVC4)
[6] = molecular target: FLAG-tagged mLST8 mutant replacing Gly192 by Asp (UniProt Q9BVC4)

Row | binding [1] | binding [2] | binding [3] | binding [4] | binding [5] | binding [6] | Substance
1 | binds | binds | – | – | – | – | CAD, endogenously expressed in HEK293 cells (from UniProt P27708 1-2225)
2 | – | binds | binds | binds | binds | binds | myc-epitope tagged CAD, full length (from UniProt B2RQC6-1 1-2225)
